In US20250090540A1, “PI3K-ALPHA INHIBITORS AND METHODS OF USE THEREOF” (Relay Therapeutics, Inc., priority 2021, published 2025):
The match of structure and compound is tentative.

Amino acid sequences for entries named in this document (tags omitted).
UniProt P42336, whole entry H1047R: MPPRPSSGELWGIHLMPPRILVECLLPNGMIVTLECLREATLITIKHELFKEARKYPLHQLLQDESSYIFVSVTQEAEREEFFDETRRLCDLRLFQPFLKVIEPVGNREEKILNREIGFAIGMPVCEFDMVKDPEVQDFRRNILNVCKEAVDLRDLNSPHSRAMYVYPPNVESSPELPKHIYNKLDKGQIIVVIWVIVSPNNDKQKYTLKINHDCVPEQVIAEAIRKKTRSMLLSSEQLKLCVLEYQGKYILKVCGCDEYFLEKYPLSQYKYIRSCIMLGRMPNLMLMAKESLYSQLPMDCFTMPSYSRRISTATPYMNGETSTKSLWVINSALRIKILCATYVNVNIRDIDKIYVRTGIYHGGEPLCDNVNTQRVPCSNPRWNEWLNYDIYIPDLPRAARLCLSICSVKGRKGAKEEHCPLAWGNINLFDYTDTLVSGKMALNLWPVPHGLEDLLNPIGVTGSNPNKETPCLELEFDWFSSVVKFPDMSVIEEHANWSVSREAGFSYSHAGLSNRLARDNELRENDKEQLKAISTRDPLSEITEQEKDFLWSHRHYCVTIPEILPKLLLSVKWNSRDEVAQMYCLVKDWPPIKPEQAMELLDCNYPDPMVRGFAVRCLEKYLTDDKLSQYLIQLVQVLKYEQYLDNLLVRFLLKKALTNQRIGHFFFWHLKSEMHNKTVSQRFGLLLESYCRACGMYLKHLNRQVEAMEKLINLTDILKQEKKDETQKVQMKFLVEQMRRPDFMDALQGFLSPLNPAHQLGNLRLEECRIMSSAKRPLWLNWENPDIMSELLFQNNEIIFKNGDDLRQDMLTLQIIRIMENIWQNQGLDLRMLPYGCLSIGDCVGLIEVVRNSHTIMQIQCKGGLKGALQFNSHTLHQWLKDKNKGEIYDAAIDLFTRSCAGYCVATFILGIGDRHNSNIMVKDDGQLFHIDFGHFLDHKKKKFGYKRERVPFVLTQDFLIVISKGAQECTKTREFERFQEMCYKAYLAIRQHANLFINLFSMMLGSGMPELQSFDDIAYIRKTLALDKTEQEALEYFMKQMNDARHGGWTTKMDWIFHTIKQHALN
UniProt P27986, whole entry partner: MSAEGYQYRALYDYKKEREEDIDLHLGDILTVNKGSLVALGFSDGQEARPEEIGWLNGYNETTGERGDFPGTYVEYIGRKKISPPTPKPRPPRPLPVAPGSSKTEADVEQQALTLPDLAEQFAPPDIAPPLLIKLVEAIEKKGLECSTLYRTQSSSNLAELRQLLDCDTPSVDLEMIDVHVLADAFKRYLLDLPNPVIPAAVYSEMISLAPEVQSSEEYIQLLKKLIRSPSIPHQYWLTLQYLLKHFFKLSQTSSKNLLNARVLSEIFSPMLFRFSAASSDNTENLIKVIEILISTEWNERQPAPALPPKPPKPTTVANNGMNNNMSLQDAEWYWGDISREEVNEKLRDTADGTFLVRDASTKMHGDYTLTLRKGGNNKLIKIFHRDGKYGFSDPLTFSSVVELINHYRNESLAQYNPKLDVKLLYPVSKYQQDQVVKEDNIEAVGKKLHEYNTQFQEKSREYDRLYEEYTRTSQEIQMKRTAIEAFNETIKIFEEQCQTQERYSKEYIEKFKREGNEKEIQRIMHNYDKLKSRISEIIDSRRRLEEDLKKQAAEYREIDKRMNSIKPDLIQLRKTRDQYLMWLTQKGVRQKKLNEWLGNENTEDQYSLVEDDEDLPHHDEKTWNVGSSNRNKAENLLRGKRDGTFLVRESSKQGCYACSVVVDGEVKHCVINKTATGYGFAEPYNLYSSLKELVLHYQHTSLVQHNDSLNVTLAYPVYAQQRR

Tests used:
[1] = target: H1047R PIK3CA enzyme (Homo sapiens, UniProt P42336, H1047R); assay: ADP-Glo Biochemical PIK3CA Kinase Assay; conditions: read-out: ADP-Glo IC50
[2] = test system: PIK3CA-mediated AKT phosphorylation in MCF10A cells overexpressing hotspot PIK3CA mutations (including H1047R, E542K, and E545K mutations)

CNC(=O)c1cnc(Nc2cccc3c2CCC3)c(NC(=O)c2cc(F)cc(C(F)(F)F)c2)c1
IC50 [1]: 100 to 500 nM | IC50 [2]: 5000 to 10000 nM

CNC(=O)c1cnc(Nc2ccccc2C)c(NC(=O)c2cc(F)c(Cl)c(F)c2)c1
IC50 [1]: 100 to 500 nM | IC50 [2]: 1000 to 5000 nM

CNC(=O)c1cnc(Nc2ccccc2C)c(NC(=O)c2cc(F)c(OC)c(C(F)(F)F)c2)c1
IC50 [1]: 1000 to 10000 nM | IC50 [2]: 10000 to 36000 nM

CNC(=O)c1cnc(Nc2ccccc2C)c(NC(=O)c2ccc(C(F)(F)F)c(F)c2)c1
IC50 [1]: 1000 to 10000 nM

CSc1cnc(Nc2ccccc2C)c(NC(=O)c2cc(F)cc(C(F)(F)F)c2)c1
IC50 [1]: 1000 to 10000 nM

Cc1cc(CNC(=O)c2cnc(Nc3ccccc3C)c(NC(=O)c3cc(F)cc(C(F)(F)F)c3)c2)no1
IC50 [1]: 100 to 500 nM | IC50 [2]: 1000 to 5000 nM

O=C(NC1CS(=O)(=O)C1)c1cnc(N2CCOCC2)c(NC(=O)c2csc3ccccc23)c1
IC50 [1]: 1000 to 10000 nM

Cc1ccccc1Nc1cccnc1NC(=O)c1csc2ccccc12 [I-635]
IC50 [1]: 1000 to 10000 nM

Cc1ccccc1Nc1ncc(NCc2cncnc2)cc1NC(=O)c1cc(F)cc(C(F)(F)F)c1 [I-638]
IC50 [1]: 1000 to 10000 nM

Cc1ccccc1Nc1ncc(NCc2cncnc2)cc1NC(=O)c1cc(F)cc(C(F)(F)F)c1 [I-639]
IC50 [1]: < 100 nM | IC50 [2]: 5000 to 10000 nM

O=C(NC1CC(F)(F)C1)c1cnc(Nc2ccccc2Cl)c(NC(=O)c2csc3ccccc23)c1 [I-641]
IC50 [1]: 1000 to 10000 nM

CNC(=O)c1cnc(Nc2ccccc2C)c(NC(=O)c2noc3ccccc23)c1 [I-671]
IC50 [1]: 1000 to 10000 nM

CNC(=O)c1cnc(Nc2cccc3ccn(C)c23)c(NC(=O)c2csc3ccccc23)c1 [I-680]
IC50 [1]: 1000 to 10000 nM | IC50 [2]: 10000 to 36000 nM

Cc1ccccc1Nc1ncc(C(=O)NCc2cccnc2)cc1NC(=O)c1cc(F)cc(C(F)(F)F)c1 [I-700]
IC50 [1]: 100 to 500 nM | IC50 [2]: 1000 to 5000 nM

Cc1ccccc1Nc1ncc(C(=O)NCc2ccc(Cl)cc2)cc1NC(=O)c1cc(F)cc(C(F)(F)F)c1 [I-702]
IC50 [1]: 100 to 500 nM | IC50 [2]: 1000 to 5000 nM

COc1cncc(CNC(=O)c2cnc(Nc3ccccc3C)c(NC(=O)c3cc(F)cc(C(F)(F)F)c3)c2)c1 [I-707]
IC50 [2]: 1000 to 5000 nM

CNC(=O)c1cnc(Nc2ccccc2C)c(NC(=O)c2ccc(C#N)c(C(F)(F)F)c2)c1 [I-710]
IC50 [1]: 1000 to 10000 nM

CNC(=O)c1cnc(Nc2ccccc2C)c(NC(=O)c2cc(F)c(C(F)(F)F)c(F)c2)c1 [I-717]
IC50 [1]: 1000 to 10000 nM

Cc1ccccc1Nc1ncc(C(=O)NCc2ncccn2)cc1NC(=O)c1cc(F)cc(C(F)(F)F)c1 [I-719]
IC50 [1]: 100 to 500 nM

CNC(=O)c1cnc(Nc2ccccc2C)c(NC(=O)c2ccc(F)c(F)c2)c1 [I-722]
IC50 [1]: 1000 to 10000 nM

COC(=O)CCS(=O)(=O)c1cnc(Nc2ccccc2C)c(NC(=O)c2cc(F)cc(C(F)(F)F)c2)c1 [I-728]
IC50 [1]: 1000 to 10000 nM

Cc1ccccc1Nc1ncc(C(=O)NCC2(C#N)CC2)cc1NC(=O)c1cc(F)cc(C(F)(F)F)c1 [I-750]
IC50 [1]: 500 to 1000 nM

Cc1ccccc1Nc1ncc(C(=O)NCc2nnc3ccccn23)cc1NC(=O)c1cc(F)cc(C(F)(F)F)c1 [I-759]
IC50 [1]: 1000 to 10000 nM

CNC(=O)c1cnc(Nc2ccccc2C)c(NC(=O)c2cc(Cl)nc(C(F)(F)F)c2)c1 [I-762]
IC50 [1]: 500 to 1000 nM
